In patent US20250262315A1 (priority 2021, published 2025) one finds conjugation yield data, which are given here for four substances.

A short description of the data set: general procedure: Fmoc solid-phase peptide synthesis; 2-Chlorotrityl chloride resin; HATU/DIPEA. Conditions: conjugation step.

The substance Fmoc-peg3-Glu-Gly-Cit-PABC-MMAE came in with a conjugation yield (for the 2 steps) of 57%.

Turning to Fmoc-peg3-Glu-Gly-Cit-PABC-MMAF, the conjugation yield (for the 2 steps) is on record as 85%.

For the setting “for the 2 steps”, Fmoc-peg3-Glu-Val-(N-Me)Cit-PABC-MMAE returned a conjugation yield of 30%.

Consider Fmoc-peg4-Gly-Cit-PABC-MMAE, for which the conjugation yield was 56%.
